# Results of single-concentration screens

The chains behind the UniProt entries cited, without tags or fusion partners. Residues count along the entry.
UniProt Q4DA54, 1-478: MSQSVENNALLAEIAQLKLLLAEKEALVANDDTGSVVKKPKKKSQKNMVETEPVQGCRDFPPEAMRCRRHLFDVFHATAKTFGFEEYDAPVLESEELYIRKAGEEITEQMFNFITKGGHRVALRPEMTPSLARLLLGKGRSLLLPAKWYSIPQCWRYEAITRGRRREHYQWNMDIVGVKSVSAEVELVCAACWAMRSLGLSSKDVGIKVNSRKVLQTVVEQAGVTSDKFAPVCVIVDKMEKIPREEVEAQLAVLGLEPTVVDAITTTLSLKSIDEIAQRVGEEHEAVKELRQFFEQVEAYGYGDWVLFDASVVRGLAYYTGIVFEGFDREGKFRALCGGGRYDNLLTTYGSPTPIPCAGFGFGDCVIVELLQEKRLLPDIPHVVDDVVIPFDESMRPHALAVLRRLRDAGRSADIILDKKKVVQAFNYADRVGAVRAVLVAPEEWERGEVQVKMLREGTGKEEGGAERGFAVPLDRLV
UniProt P9WFT3, whole entry: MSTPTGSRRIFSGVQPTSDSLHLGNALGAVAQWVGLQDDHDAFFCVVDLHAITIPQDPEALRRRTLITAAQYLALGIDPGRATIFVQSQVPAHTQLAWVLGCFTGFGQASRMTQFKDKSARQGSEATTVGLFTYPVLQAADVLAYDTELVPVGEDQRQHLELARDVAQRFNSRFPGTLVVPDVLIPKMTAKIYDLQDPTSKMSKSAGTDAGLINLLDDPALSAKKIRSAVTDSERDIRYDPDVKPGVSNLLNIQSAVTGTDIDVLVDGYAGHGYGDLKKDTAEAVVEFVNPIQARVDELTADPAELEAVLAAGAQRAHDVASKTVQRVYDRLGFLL
UniProt I6X8D2, whole entry: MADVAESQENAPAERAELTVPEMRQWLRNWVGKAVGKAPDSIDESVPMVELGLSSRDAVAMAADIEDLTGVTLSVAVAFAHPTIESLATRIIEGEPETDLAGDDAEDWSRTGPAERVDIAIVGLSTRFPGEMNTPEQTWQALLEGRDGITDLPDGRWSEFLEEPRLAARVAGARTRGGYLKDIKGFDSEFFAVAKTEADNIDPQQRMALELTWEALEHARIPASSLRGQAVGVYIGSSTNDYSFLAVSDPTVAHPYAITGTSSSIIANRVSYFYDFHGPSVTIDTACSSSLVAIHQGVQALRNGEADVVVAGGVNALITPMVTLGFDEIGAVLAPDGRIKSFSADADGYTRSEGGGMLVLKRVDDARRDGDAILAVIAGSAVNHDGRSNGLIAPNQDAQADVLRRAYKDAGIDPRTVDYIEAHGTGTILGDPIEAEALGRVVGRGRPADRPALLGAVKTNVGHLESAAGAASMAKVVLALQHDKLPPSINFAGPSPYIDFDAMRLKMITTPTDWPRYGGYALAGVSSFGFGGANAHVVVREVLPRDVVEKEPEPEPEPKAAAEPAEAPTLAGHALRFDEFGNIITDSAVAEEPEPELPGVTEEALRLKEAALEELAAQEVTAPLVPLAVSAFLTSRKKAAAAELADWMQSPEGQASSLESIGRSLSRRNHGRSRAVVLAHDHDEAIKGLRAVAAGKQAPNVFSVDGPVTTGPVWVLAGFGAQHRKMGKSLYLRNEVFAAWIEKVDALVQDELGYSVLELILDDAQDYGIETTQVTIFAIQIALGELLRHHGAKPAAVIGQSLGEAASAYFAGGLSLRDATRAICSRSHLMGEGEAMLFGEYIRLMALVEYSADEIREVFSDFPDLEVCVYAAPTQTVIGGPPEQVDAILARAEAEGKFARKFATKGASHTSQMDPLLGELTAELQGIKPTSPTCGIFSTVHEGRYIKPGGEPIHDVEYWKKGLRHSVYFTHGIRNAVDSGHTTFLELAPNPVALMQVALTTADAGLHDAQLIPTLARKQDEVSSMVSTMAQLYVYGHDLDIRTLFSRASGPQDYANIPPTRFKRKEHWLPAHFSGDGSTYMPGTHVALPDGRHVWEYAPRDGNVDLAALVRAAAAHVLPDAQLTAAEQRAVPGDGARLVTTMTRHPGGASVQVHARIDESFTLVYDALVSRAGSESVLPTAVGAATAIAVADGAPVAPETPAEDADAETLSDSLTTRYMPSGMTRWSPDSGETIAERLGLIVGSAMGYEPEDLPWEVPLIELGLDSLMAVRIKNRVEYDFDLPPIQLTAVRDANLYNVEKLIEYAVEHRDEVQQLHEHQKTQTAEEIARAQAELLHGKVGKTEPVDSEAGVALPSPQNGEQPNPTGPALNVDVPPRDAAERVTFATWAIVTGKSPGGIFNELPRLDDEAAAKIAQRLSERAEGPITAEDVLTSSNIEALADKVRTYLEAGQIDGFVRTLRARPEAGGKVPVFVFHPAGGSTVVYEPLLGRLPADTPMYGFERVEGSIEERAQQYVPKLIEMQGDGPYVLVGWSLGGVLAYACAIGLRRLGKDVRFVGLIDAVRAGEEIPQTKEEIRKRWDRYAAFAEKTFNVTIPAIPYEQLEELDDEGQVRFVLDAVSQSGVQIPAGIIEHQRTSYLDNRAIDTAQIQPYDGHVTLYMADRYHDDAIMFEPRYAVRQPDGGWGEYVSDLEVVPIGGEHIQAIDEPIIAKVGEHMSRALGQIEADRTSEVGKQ
UniProt Q8IDJ8, 1-583: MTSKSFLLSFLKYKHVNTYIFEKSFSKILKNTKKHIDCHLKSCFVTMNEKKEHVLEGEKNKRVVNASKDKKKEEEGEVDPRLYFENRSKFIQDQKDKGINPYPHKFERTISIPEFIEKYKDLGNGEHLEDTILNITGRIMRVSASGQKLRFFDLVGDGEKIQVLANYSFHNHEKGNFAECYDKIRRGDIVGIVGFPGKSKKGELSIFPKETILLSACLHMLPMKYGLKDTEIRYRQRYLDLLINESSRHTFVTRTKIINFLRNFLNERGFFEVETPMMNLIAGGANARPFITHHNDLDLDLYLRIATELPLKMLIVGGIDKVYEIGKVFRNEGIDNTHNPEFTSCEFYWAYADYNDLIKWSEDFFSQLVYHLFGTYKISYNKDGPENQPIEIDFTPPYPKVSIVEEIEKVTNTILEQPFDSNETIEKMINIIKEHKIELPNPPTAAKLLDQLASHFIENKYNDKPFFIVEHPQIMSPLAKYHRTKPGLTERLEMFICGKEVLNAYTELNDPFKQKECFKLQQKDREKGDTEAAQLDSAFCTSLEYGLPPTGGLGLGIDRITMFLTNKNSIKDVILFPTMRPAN

Measurements from “University of Dundee, Small-Polar-MMV Screening Library” (2021), ChEMBL document CHEMBL3988442.

Values are the deposited “Percent Effect”, in %. The record does not define 0% and 100%; most values in the screen are far below 50% and negative numbers occur (in some assays of this library far below -100). This is an unselected part of the compounds tested.

A: 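Enzyme assay of histidyl-tRNA synthetase; the read-out is not stated. Target: Histidine-tRNA ligase, Trypanosoma cruzi CL Brener (UniProt Q4DA54). Tested at 30 µM. Higher reads as stronger inhibition (inferred: compounds with an IC50 in retests scored well above the rest). Of about 69,000 compounds tested this way, about 31 (0.045%) reached 50% or more in at least one test.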
B: 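Tryptophan-tRNA ligase, Mycobacterium tuberculosis (UniProt P9WFT3). Enzyme assay of tryptophanyl-tRNA synthetase; the read-out is not stated. Compounds at 10 µM. Higher most likely means stronger inhibition; the record gives no direction and few retests gave an IC50. About 65,000 compounds were tested under these conditions; 0.098% (about 64) showed 50% or more at least once.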
C: 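Enzyme assay of the thioesterase domain of polyketide synthase 13; the read-out is not stated. Target: Polyketide synthase Pks13, Mycobacterium tuberculosis (UniProt I6X8D2). Concentration: 30 µM. The record gives no direction; the compounds picked for IC50 retests had high values, so higher reads as stronger inhibition. Size under these conditions: about 67,000 compounds, about 300 of them at 50% or above in at least one test.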
D: 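Enzyme assay of the cytosolic lysyl-tRNA synthetase in 384-well plates, read by luminescence. Target: Lysine-tRNA ligase, Plasmodium falciparum 3D7 (UniProt Q8IDJ8). Tested at 30 µM. Direction is inferred from only a few compounds that gave an IC50; most scored high, so higher reads as stronger inhibition. Size under these conditions: about 69,000 compounds, about 49 of them at 50% or above in at least one test.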
E: 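Assay of Toxoplasma gondii numbers, read through their beta-galactosidase reporter with a colour substrate. Tested at 10 µM. Higher reads as fewer parasites (inferred from which compounds were picked for retests). Size under these conditions: about 67,000 compounds, about 260 of them at 50% or above in at least one test.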

{"smiles": "NC(=O)NC(=O)CCN1CCN(c2nccs2)CC1", "A": 5.764, "B": 14.41, "C": -21.21, "D": -0.717, "E": -9.522}
{"smiles": "[H][C@@]12CC[C@H](Oc3cccc(F)c3)[C@]1([H])CN(C(=O)c1ccnn1C)C2", "E": -13.68}
{"smiles": "CN(C)C(=O)N1C[C@@H]2CC[C@H](C1)N(C/C=C/c1ccc(F)cc1)C2", "A": 4.762, "B": -1.09, "C": -4.473, "D": 17.73}
{"smiles": "CN(C)C(=O)CCNC(=O)Nc1cccc(Cl)c1-n1cccn1", "A": 0.4425, "B": -5.848, "C": -7.392, "D": 6.681, "E": 7.46}
{"smiles": "CCN(Cc1cccc(C)c1)Cc1nc2c(cnn2C)c(=O)[nH]1", "A": 6.706, "B": -6.019, "C": -15.82, "D": 0.6909, "E": 22.89}
{"smiles": "c1cnn(CCC2CCCCN2Cc2cnc(C3CCCCC3)nc2)c1", "stereo": "stereo unspecified", "A": 10.99, "B": -1.107, "C": -6.243, "D": 7.114, "E": 5.36}
{"smiles": "O=C1NCCCCC1NS(=O)(=O)N1CCCCCC1", "stereo": "stereo unspecified", "A": 2.521, "B": -0.3632, "C": -9.2, "D": 1.747, "E": -2.881}
{"smiles": "Cn1ccc(C(=O)N2CCC(Cc3cccc4ncccc34)CC2)n1", "A": 0, "C": 2.492, "D": 2.601, "E": 19.85}
{"smiles": "O=S1(=O)NCC2(CCN(Cc3ccc(Cl)s3)C2)Oc2ncccc21", "stereo": "stereo unspecified", "A": -2.959, "B": 8.384, "D": -6.723, "E": 32.24}
{"smiles": "CS(=O)(=O)c1snnc1C1CCN(Cc2ccncc2)CC1", "A": 5.946, "B": -1.421, "C": -29.84, "D": -3.33, "E": 3.78}
{"smiles": "Cc1nn(Cn2ccc(C(=O)N3CCCCCC3)n2)c(C)c1Cl", "A": 7.216, "B": 3.181, "C": -16.71, "D": 2.812, "E": 27.99}
{"smiles": "COCC(=O)N1CCC(C(=O)N(C)C(C)c2ccon2)CC1", "stereo": "stereo unspecified", "A": 8.642, "B": 1.41, "C": -1.443, "D": 5.211, "E": -13.3}
{"smiles": "O=C(c1cc(-c2ccn(CC3CC3)n2)n2ccccc12)N1CCOCC1", "A": 8.046, "B": -3.111, "C": 13.33, "D": 5.794, "E": 1.435}
{"smiles": "CCNc1ncc(C(=O)NC2COC3(CCCC3)C2)cn1", "stereo": "stereo unspecified", "A": -12.35, "B": -0.1282, "C": -4.547, "D": 0.6082, "E": -13.3}
{"smiles": "O=C(O)C(F)(F)F.O=C(O)C(F)(F)F.[H][C@@]12CC(COCc3cccnc3)C[C@@]1([H])N(c1ncc(C)cn1)CCO2", "stereo": "stereo partly specified", "E": -5.059}
{"smiles": "[H][C@@]12COC(=O)N1CCN(C(=O)COC)C2", "E": -25.21}
{"smiles": "Cc1nn(C(C)C)c(C)c1S(=O)(=O)Nc1cccc(F)c1", "A": 3.896, "B": 0.9288, "C": -22.47, "D": -4.688, "E": 6.561}
{"smiles": "Cc1cc(C)n(CC(C)NCc2cnc3c(C)cccn23)n1", "stereo": "stereo unspecified", "A": 12.34, "B": -1.837, "C": -15.1, "D": 1.649, "E": -4.08}
{"smiles": "Cc1cnc(NCCCN2CCCCC2CO)nc1", "stereo": "stereo unspecified", "A": 11.88, "B": -0.144, "C": 1.927, "D": -0.874, "E": -6.156}

Once more, the final 2:

- Cc1cc(C)n(CC(C)NCc2cnc3c(C)cccn23)n1 (stereo unspecified) : A: 12.34%; B: -1.837%; C: -15.1%; D: 1.649%; E: -4.08%
- Cc1cnc(NCCCN2CCCCC2CO)nc1 (stereo unspecified) : A: 11.88%; B: -0.144%; C: 1.927%; D: -0.874%; E: -6.156%